Substitutions are numbered along the chain they refer to. Results are given in words; binding and its absence hold for the method and conditions named. Some binding calls cover weakened binding; strength is not graded here.
B1: Mouse anti-CKAP4 antibody 3F11-2B10 (antibody, V domains shown)
VH: VQLQQQPGTELVKPGASVKLSCKASGFTFTSYWMHWVKQRPGQGLEWIGNINPSNGGTNYNAKFKSKATLTVDKSSSTAYMQLSSLTSEDSAVYYCARWVSFSYRGAMDYWGQGTSVTVSS
VL: DIVLTQSPAILSVTPGDGVSLSCRASRAIRNNLHWFQQKSHESPRLLIKYVSQSISGIPSRFSGSGSGTDFTLSVDSVETEDFGVYFCQQSDSWPYTFGGGTKLEIK
notes: Mouse monoclonal antibody; also called Mouse antibody 3F11-2B10; original mouse anti-CKAP4 antibody
B2: Humanized anti-CKAP4 antibody Hv1Lt1 (antibody, human IgG1, V domains shown)
VH: QVQLVQSGAEVKKPGASVKVSCKASGFTFTSYWMHWVRQAPGQGLEWIGNINPSNGGTNYNAKFKSRVTMTRDTSTSTVYMELSSLRSEDTAVYYCARWVSFSYRGAMDYWGQGTLVTVSS
VL: EIVLTQSPDFQSVTPKEKVTITCRASRAIRNNLHWYQQKPDQSPKLLIKYVSQSISGVPSRFSGSGSGTDFTLTINSLEAEDAATYYCQQSDSWPYTFGQGTKLEIK
notes: also called HvlLtl; Humanized antibody Hv1Lt1
B3: Humanized anti-CKAP4 antibody Hv2Lt1 (antibody, human IgG1, V domains shown)
VH: B2 VH with F27Y, I48M, N50I, N59S, N61A, A62Q, K65Q, S66G
VL: B2 VL
notes: also called Hv2Ltl; Humanized antibody Hv2Ltl

Protein sequences, listed by entry. Tags and fused reporters are not part of them. Lines headed by an entry give the natural chain unless they say otherwise; changes in a name come on top.
UniProt Q07065: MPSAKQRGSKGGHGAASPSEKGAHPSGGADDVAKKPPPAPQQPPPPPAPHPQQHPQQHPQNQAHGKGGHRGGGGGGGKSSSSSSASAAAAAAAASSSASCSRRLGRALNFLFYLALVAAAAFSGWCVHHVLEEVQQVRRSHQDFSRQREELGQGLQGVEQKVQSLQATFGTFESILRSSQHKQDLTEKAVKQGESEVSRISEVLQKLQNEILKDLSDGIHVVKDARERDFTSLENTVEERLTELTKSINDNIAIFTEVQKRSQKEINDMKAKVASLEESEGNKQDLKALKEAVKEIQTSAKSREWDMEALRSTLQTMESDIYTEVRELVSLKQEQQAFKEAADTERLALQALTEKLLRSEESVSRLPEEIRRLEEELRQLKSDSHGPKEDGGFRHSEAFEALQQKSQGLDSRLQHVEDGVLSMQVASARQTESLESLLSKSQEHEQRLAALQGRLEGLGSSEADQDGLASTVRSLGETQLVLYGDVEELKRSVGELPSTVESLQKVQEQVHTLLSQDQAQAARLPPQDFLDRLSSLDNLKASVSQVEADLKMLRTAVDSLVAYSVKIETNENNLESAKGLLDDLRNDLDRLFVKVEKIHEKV

Tests used:
[1] = target: human endogenous CKAP4 (S2-CP8 cells) (human) (UniProt Q07065); experiment: immunoprecipitation from S2-CP8 cell lysate, blot with rabbit anti-CKAP4 polyclonal antibody
[2] = target: CKAP4 in lysates of canine kidney cells MDCK I (canine); experiment: blot of MDCK I cell lysate

| Binder | binding [1] | binding [2] |
| --- | --- | --- |
| B1 | binds |  |
| B2 |  | binds |
| B3 |  | binds |

Source: patent EP4800033A1, “HUMANIZED ANTI-CKAP4 ANTIBODY OR ANTIGEN-BINDING FRAGMENT THEREOF” (The University of Osaka, priority 2023, dated 2025)
